# Results published in PubChem BioAssay AID504332 (National Center for Advancing Translational Sciences (NCATS), 2011).
# By UniProt entry, the sequences of proteins in these tests, tags left out. Where a name states a change or a piece, a line headed by the entry shows the natural chain unless it says otherwise.
# UniProt Q96KQ7: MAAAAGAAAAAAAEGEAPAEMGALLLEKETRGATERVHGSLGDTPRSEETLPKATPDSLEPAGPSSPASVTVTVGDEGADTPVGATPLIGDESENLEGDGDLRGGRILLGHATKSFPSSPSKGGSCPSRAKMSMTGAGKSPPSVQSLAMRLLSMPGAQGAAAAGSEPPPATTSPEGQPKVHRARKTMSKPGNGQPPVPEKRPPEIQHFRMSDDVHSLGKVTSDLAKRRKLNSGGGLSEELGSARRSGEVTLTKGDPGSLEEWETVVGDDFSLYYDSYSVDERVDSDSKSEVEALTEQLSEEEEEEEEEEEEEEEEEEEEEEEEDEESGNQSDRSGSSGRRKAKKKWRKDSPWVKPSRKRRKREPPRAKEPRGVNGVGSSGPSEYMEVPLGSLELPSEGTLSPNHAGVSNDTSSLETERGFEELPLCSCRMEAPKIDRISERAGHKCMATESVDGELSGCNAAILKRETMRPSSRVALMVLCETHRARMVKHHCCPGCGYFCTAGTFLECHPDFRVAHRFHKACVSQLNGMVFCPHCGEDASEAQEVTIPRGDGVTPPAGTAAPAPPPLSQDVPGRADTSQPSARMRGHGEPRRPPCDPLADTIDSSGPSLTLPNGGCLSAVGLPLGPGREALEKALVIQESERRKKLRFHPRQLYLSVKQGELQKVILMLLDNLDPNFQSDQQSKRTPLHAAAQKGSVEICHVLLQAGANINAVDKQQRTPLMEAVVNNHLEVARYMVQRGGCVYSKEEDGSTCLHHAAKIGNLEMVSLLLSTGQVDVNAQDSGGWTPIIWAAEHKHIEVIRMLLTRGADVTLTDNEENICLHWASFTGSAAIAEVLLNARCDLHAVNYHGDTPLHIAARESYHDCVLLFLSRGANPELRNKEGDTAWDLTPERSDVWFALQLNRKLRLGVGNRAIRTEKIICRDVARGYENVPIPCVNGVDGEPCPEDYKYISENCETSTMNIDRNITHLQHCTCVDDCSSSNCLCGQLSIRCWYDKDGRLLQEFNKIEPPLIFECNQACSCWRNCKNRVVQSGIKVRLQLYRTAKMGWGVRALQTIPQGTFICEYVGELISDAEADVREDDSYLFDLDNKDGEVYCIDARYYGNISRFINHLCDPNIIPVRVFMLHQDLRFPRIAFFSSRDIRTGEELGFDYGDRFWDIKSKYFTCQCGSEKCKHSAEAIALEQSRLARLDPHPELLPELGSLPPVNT
# What follows is the remainder of the data, with few or none of the hits. Results filed as inconclusive are left out. Calls of active or inactive are those of the source. Calls come from the whole dose curve; as a rule, active = well fitted inhibition curve with a large enough effect; inconclusive = small, poorly fitted or top-dose-only effect; inactive = no such curve, though single readings can be large or run the other way.
# Biological target: Histone-lysine N-methyltransferase EHMT2 (Homo sapiens) (UniProt Q96KQ7)
# Test: qHTS Assay for Inhibitors of Histone Lysine Methyltransferase G9a; note: nearly all actives have a fitted effect of over 75% in size
# Settings: G9a H3K9 monomethylation, AlphaScreen, 2 h
# Description: Methylated lysines, on the N-terminal tails of histone proteins serve as epigenetic markers to recruit factors that can then modify local chromatin structure to lead to functional consequences. G9a and other members of the SUV39 family of the SET domain-containing superfamily of histone lysine methyltransferases (HMT) have been identified to specifically methylate Lys9 of histone H3 (H3K9). G9a catalyzes the mono- and di-methylation of H3K9 in mammalian euchromatic regions, where the resulting H3K9me2 is indicative of transcriptional repression. […] The inhibition of G9a will result in transcriptional activation and work synergistically with DNA methyltransferase and histone deacetylase inhibitors, to kill cancer cells. This qHTS assay for identification of G9a inhibitors is a chemiluminescence based AlphaScreen (PerkinElmer). Methylation of biotinylated-histone peptide is measured through specific antibody-based detection, in conjunction with streptavidin-coated donor and anti-IgG antibody-coated acceptor beads. The method is particularly well suited for detection of inhibitors acting by the desired histone peptide competitive mechanism and is applicable to testing other HMTs. Although AlphaScreen has significant advantages with its utility in a variety of epigenetic target assays, the primary screening data provided in this deposition should be used with caution due to the prevalence of screening artifacts. An AlphaScreen counterscreen is highly recommended to be run against any putative actives to eliminate non specific artifacts. Alternatively, one can use other AlphaScreen assays in PubChem to filter out promiscuous hits. Quinn et al. A chemiluminescence-based method for identification of histone lysine methyltransferase inhibitors. Mol Biosyst 6(5): 782-8. 2010. PMID: 20567762 [2] Baell,Holloway. New substructure filters for removal of pan assay interference compounds (PAINS) from screening libraries and for their exclusion in bioassays. J Med Chem. 53(7):2719-40. 2010. PMID: 20131845 NIH Molecular Libraries Probe Production Network [MLPCN] NIH Chemical Genomics Center [NCGC] Structural Genomics Consortium (SGC) NIH Grant: 5U54 MH084681-02
# To each well of a 1,536w plate, 2ul of HMT enzyme (final 20nM) were added, using a nanoliter dispenser. The G9a- and GLP-inhibitor BIX-01294 (CID: 25150857) are used as an intraplate control, with a 16-point titration in duplicate. A Kalypsys pin-tool transferred 23nl of library compound solution in DMSO to each well. Following a 15 min incubation of enzyme with compounds at room temperature, 1ul mixture of b-H3K9 peptide substrate (final 500nM) and SAM cofactor (final 20uM) were added. Reactions were allowed to proceed at room temperature for 2 hours. Methylated b-H3K9 peptide product was detected with 0.5 ug/mL rabbit polyclonal anti-monomethyl histone H3K9 antibody (Abcam Inc., Cambridge, MA) and 20 ug/mL each streptavidin-coated donor and anti-rabbit IgG acceptor AlphaScreen beads. Antibody and beads were added in a 1ul dispense, for a final volume of 4ul, and plates were incubated, protected from the light, for 10 min at room temperature. Microplates were then read on an EnVision multilabel plate reader using the 1,536 plate HTS AlphaScreen aperture (excitation time 80 ms, measurement time 240 ms).
# % is set by controls: 0 for no effect and ±100 for the full control effect.
structure (smiles),measurement,setting,value
CN1C2CCC1CC(OC(=O)C(O)c1ccccc1)C2 (stereo not given),"activity, negative = inhibition",at 12.7 µM (top of the series),inactive: 13.6%
Cc1cc(=O)oc2cc(OCc3ccccc3)ccc12,"activity, negative = inhibition",at 102 µM (top of the series),inactive: 63.6%
CN1[C@@H]2CC[C@H]1CC(OC(=O)[C@@H](O)c1ccccc1)C2 (stereo not given in full),"activity, negative = inhibition",at 2.33 µM (top of the series),inactive: -32.6%
same,"activity, negative = inhibition",at 59 µM (top of the series),inactive: -17.9%
CN1[C@@H]2CC[C@H]1CC(OC(=O)C(O)c1ccccc1)C2 (stereo not given in full),"activity, negative = inhibition",at 59 µM (top of the series),inactive: -4.58%
